Assay results: PMC11574084
Results are given in words; binding and its absence hold for the method and conditions named. In cells and extracts the contact can be indirect. Here binding means that the protein was enriched with, or labelled near, the bait; the list need not be complete.

Protein sequences, listed by entry. Tags and fused reporters are not part of them.
UniProt O00629: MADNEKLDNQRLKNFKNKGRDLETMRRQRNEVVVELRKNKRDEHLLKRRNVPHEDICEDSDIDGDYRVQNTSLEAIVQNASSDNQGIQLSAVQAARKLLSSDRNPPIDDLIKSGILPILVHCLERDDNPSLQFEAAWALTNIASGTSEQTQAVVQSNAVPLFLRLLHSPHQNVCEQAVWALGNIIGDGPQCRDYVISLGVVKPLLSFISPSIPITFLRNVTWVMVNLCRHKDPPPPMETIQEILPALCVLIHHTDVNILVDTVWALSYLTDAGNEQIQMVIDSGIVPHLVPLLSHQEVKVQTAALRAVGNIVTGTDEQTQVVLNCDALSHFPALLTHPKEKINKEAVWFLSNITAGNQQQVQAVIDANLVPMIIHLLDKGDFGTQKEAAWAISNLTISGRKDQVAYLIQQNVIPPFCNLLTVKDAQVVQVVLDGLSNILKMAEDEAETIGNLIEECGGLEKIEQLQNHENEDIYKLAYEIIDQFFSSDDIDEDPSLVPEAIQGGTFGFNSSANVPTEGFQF

Target: T1, IRF1 (human (endogenous in HUVEC)) (UniProt P10914)
T1 sequence: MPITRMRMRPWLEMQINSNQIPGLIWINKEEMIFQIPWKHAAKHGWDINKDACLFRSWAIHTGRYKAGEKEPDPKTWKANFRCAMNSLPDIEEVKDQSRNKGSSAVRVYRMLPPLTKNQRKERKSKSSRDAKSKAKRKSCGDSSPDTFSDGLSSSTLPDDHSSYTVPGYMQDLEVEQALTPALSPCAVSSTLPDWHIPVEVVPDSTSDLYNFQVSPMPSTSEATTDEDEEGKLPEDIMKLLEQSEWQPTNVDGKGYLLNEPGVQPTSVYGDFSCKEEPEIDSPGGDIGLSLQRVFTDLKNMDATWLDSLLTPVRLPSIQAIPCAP
Experiment: affinity purification with mass spectrometry; LC-MS analysis of Co-IP samples made with anti-IRF1 antibody; endothelial cells

binding: binds
Substance: KPNA4 (from UniProt O00629 1-521)
